In PubChem BioAssay AID330 (DTP/NCI, 2004):
The list shows only some results of the screen, not a fair sample: it is rich in T/C values a quarter to a half above the control, in often repeated tests (any T/C) and in doses without a T/C. Other doses and runs of a compound stand elsewhere. T/C gives the treated animals as a percentage of the vehicle group. Some doses have a count of surviving animals in place of a T/C: the source files T/C as zero there, which appears to mark a toxic dose or a test without result, not a measured value. Some doses without a T/C left all or most animals alive at the check, yet need not have been tolerated: survival well below the control is almost never listed, so the zero probably covers shortened survival too. Survivors were counted at the toxicity check, usually on the fifth day, unless a day is given; later deaths do not show. Schedule codes are those of the source, taken here to give the interval after Q, in days (D) or hours (H), and the number of doses after X. Additions like (4×) stand for listed records that agree. Some entries hold several experiments; the results are listed from low to high. For survival time, this PubChem deposit counts one and a half times the control or more as active, and values a quarter to a half above the control carry no call in these data; other NCI protocols may use other cut-offs. Some T/C values carry the count of animals alive at the toxicity check (mostly the fifth day); without a count, all were alive then.

Tested on: P388 leukemia ip, CD2F1 mice, survival T/C
Experiment: NCI In Vivo Anticancer Drug Screen. Data for tumor model P388 Leukemia (intraperitoneal) in CD2F1 (CDF1) mice
Settings: T/C endpoint: median survival time, higher T/C = longer survival
[1] = dose: 200.0 mg/kg/injection, schedule: Q01DX009 (ip), vehicle: other

**Q.** With `CC(C)(C[NH-])C[NH-].[Cl][Pt+2][Cl]` as the compound, how does the T/C (dose: 0.25 mg/kg/injection, schedule: Q04DX003 (ip), vehicle: water, evaluated on day 30) read?
**A.** The T/C was 118 and 153 % of control.

**Q.** And the T/C (dose: 0.25 mg/kg/injection, schedule: Q04DX003 (ip), vehicle: water, evaluated on day 45)?
**A.** The T/C was 142 % of control.

**Q.** What about the T/C (dose: 0.25 mg/kg/injection, schedule: Q04DX003 (ip), vehicle: water, evaluated on day 55) of the same compound?
**A.** The T/C was 152 % of control.

**Q.** What about the T/C (dose: 0.5 mg/kg/injection, schedule: Q04DX003 (ip), vehicle: water, evaluated on day 30) of the same compound?
**A.** Its T/C is 134 and 151 % of control.

**Q.** What about the T/C (dose: 0.5 mg/kg/injection, schedule: Q04DX003 (ip), vehicle: water, evaluated on day 45) of the same compound?
**A.** The T/C was 166 % of control.

**Q.** What about the T/C (dose: 0.5 mg/kg/injection, schedule: Q04DX003 (ip), vehicle: water, evaluated on day 55) of the same compound?
**A.** The T/C was 161 % of control.

**Q.** What about the T/C (dose: 1.0 mg/kg/injection, schedule: Q04DX003 (ip), vehicle: water, evaluated on day 30) of the same compound?
**A.** Its T/C is 164 and 175 % of control.

**Q.** What about the T/C (dose: 1.0 mg/kg/injection, schedule: Q04DX003 (ip), vehicle: water, evaluated on day 45) of the same compound?
**A.** Its T/C is 196 % of control.

**Q.** And the T/C (dose: 1.0 mg/kg/injection, schedule: Q04DX003 (ip), vehicle: water, evaluated on day 55)?
**A.** Its T/C is 164 % of control.

**Q.** And the T/C (dose: 2.0 mg/kg/injection, schedule: Q04DX003 (ip), vehicle: water, evaluated on day 30)?
**A.** The T/C was 166 and 200 % of control.

**Q.** What about the T/C (dose: 2.0 mg/kg/injection, schedule: Q04DX003 (ip), vehicle: water, evaluated on day 45) of the same compound?
**A.** The T/C was 245 % of control.

**Q.** And the T/C (dose: 2.0 mg/kg/injection, schedule: Q04DX003 (ip), vehicle: water, evaluated on day 55)?
**A.** The T/C was 183 % of control.

**Q.** And the T/C (dose: 4.0 mg/kg/injection, schedule: Q04DX003 (ip), vehicle: water, evaluated on day 30)?
**A.** Its T/C is 216 % of control.

**Q.** What about the T/C (dose: 4.0 mg/kg/injection, schedule: Q04DX003 (ip), vehicle: water, evaluated on day 55) of the same compound?
**A.** The T/C was 200 % of control.

**Q.** And the survivor count (dose: 4.0 mg/kg/injection, schedule: Q04DX003 (ip), vehicle: water)?
**A.** Its survivor count is 6 of 6 (2×).

**Q.** Which survivor count (dose: 12.5 mg/kg/injection, schedule: Q01DX009 (ip), vehicle: saline with Tween-80) does the source give for `COP(=O)(O)OC.[U]` here?
**A.** Its survivor count is 5 of 6 and 6 of 6.

**Q.** What about the survivor count (dose: 25.0 mg/kg/injection, schedule: Q01DX009 (ip), vehicle: saline with Tween-80) of the same compound?
**A.** Its survivor count is 5 of 6.

**Q.** What about the survivor count (dose: 50.0 mg/kg/injection, schedule: Q01DX009 (ip), vehicle: saline with Tween-80) of the same compound?
**A.** The survivor count was 3 of 6.

**Q.** And the survivor count (dose: 100.0 mg/kg/injection, schedule: Q01DX009 (ip), vehicle: saline with Tween-80)?
**A.** Its survivor count is 1 of 6.

**Q.** And the survivor count (dose: 200.0 mg/kg/injection, schedule: Q01DX009 (ip), vehicle: saline with Tween-80)?
**A.** Its survivor count is 0 of 6.

**Q.** Which results are given for `CCOC(=O)N(NC(=O)c1ccc(N(CCCl)CCCl)cc1)C(C)=O`?
**A.** T/C (dose: 100.0 mg/kg/injection, schedule: Q01DX009 (ip), vehicle: other): 126 % of control; T/C [1]: 129 % of control [5 of 6 alive]; survivor count [1]: 0 of 6; survivor count (dose: 300.0 mg/kg/injection, schedule: Q01DX009 (ip), vehicle: other): 0 of 6; survivor count (dose: 400.0 mg/kg/injection, schedule: Q01DX009 (ip), vehicle: other): 0 of 6

**Q.** `C[n+]1ccc2ccccc2c1SC1CCC2CC3CC2C1C3` (centres undefined) was tested. Which survivor count (dose: 30.0 mg/kg/injection, schedule: Q01DX005 (ip), vehicle: saline with Tween-80) did it give?
**A.** Its survivor count is 1 of 6.

**Q.** And the survivor count (dose: 60.0 mg/kg/injection, schedule: Q01DX005 (ip), vehicle: saline with Tween-80)?
**A.** The survivor count was 2 of 6.

**Q.** And the survivor count (dose: 120.0 mg/kg/injection, schedule: Q01DX005 (ip), vehicle: saline with Tween-80)?
**A.** Its survivor count is 0 of 6.

**Q.** And the survivor count (dose: 240.0 mg/kg/injection, schedule: Q01DX005 (ip), vehicle: saline with Tween-80)?
**A.** Its survivor count is 0 of 6.
